Laboratory results published in patent US20110021579A1, “PERITONEUM PROTECTING AGENT” (TOKAI UNIVERSITY EDUCATIONAL SYSTEM, priority 2005, published 2011).

Test: Biochemical data and body weight of subtotally nephrectomized uremic rats undergoing peritoneal dialysis
Format: in vivo
Settings: 21 weeks, mean ± SD
Description: Six-week-old male Sprague-Dawley rats weighing 200±3 g (CLER Japan, Inc., Tokyo) were randomly assigned to: sham-operated control rats (Group 1: n=6); uremic rats without peritoneal dialysis (Group 2: n=12); and uremic rats undergoing peritoneal dialysis (n=24). The uremic rats undergoing peritoneal dialysis were further divided into two groups: a group dialyzed with 4.25% Dianeal (registered trademark) (3.86% glucose, 2.5 mEq/CAPD fluid, Baxter Healthcare Corp., Round Lake; IL, USA) (Group 3: n=12); and a group peritoneally dialyzed with 4.25% Dianeal (registered trademark) containing pyridoxamine (Pridorine, Biostratum Inc., NC, USA) at 5 mg/l (Group 4: n=12).
Uremic models were generated by 5/6 nephrectomy according to previous reports [Lameire N, et al. Kidney Int 54: 2194-2206, 1998; and Kleinknecht C, et al., Kidney Int 47: S51-S54, 1995]. The animals were provided free access to standard experimental rat chow (CE2: CLER Japan, Inc., Tokyo) containing 1.06% calcium, 0.9% phosphate, and 21% proteins, and tap water until the evening prior to slaughter. On the 13th week, Rat-o-Ports with a 13.5 cm catheter (Access Technologies, Norfolk Medical, Skokie, Ill., USA) were implanted into all the rats under anesthetization of isoflurane. The Rat-o-ports were implanted subcutaneously in the neck, after one week of which the peritoneal dialysis with 30 ml of dialysate was initiated twice a day. The PD was continued for 6 weeks [Zweers MM, et al., Nephrol Dial Transplant 16: 651-654, 2001]. Before the initiation of the peritoneal dialysis, four, five, and two rats had died respectively in Group 2, Group 3, and Group 4. In the end, there were obtained: sham-operated control group (Group 1: n=6); uremic group without peritoneal dialysis (Group 2: n=8); uremic group undergoing peritoneal dialysis (Group 3: n=7); and uremic group undergoing peritoneal dialysis with 5 mg pyridoxamine (Group 4: n=10).
After 6 weeks of PD, 4.25% Dianeal (registered trademark) was injected from the access port and a peritoneal equilibration test (60 minutes) was performed. Rats were then euthanatized by overanesthetization. Plasma was separated from the heparinized blood obtained at the 21st week. Mesenterium was excised and assessed by light microscopy or immunohistochemistry.
The concentrations of glucose, creatinine, urea, total cholesterol, and triglyceride in plasma and peritoneal dialysate were measured with an autoanalyzer (Hitachi 736-60, Hitachi Co. Ltd., Tokyo).

[1] = 6-week PD with pyridoxamine 5 mg/l (Group 4)

Work on `Cc1ncc(CO)c(CN)c1O` [pyridoxamine] yielded a Plasma creatinine (6-week PD with 4.25% Dianeal containing pyridoxamine 5 mg/l (Group 4)) of 1.3 ± 0.6 mg/dL, a Plasma glucose [1] of 155.2 ± 20.5 mg/dL and a Plasma urea [1] of 70.1 ± 23.4 mg/dL. It also gave a Total cholesterol [1] of 125.4 ± 31.8 mg/dL and a Triglycerides [1] of 122.5 ± 50.2 mg/dL.
